Reference: the supplement of paper PMC10338343
± gives the standard deviation. This is a selection; strong and weak results do not stand in their true shares. Many of these values have a large error.

The sequences below were run on MIWI (PIWIL1) piRISC loaded with L1MC piRNA (30 nt) (assay: pre-steady-state target cleavage rate (min^-1); MIWI and MILI are mouse PIWI proteins and EfPiwi is from a freshwater sponge; tags in brackets are library labels; higher = faster piRNA-guided slicing of the target). Conditions: guide: L1MC piRNA 5'p-UAACUAAAUACUAUGCAAGCUGUAGGUCCU; auxiliary factor: none (no GTSF1).
Method in brief: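 A transcribed, DNA-blocked target RNA library […] was incubated at 33 °C for 0–8 or 0–960 min with 1 nM active affinity-purified piRISC carrying one synthetic guide, in HEPES–potassium acetate buffer with or without 500 nM GTSF1 partner protein. Uncleaved targets were then sequenced and normalised to depth and to weakly complementary targets. Data from three trials were pooled, with k3 capped at 0.0001 min^-1, and a burst-and-steady-state fit yielded the pre-steady-state cleavage rate.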
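Also: 1 nM active piRISC with 0.1 nM target library at 33 °C single turnover.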

Row | Sequence | pre-steady-state target cleavage rate
1 | UCCUGGAUCAGCUAUGCAUAGUAUUUAGUUA | 0.0161 ± 0.0043
2 | UCCUGGAUGUCGAAGCAUAGUAUUUAGGUUA | 0.000733 ± 0.007
3 | UCCUGGAACAGCUUGCAAAGUAUAUAGUUA | 0.0164 ± 0.0061
4 | UCCUGGAUGUGCUUGCAUACAUUUUAGUUA | 0.000876 ± 0.0098
5 | UCCUCGAUCAGCUUGCAUAGUAUUUAGUAA | 0.04 ± 0.0086
6 | UCCUGGAUGUCGAUGCAAAGUAUUUAGUUA | 0.00121 ± 0.0058
7 | UCCUGGAUGUGCUUGCAUUGUAUUUAGAAA | 0.0015 ± 0.0059
8 | UCCUCCUACAGCUUGCAUACUAUUUACUUA | 0.018 ± 0.0033
9 | UCCUGGAACAGCUUGGAUAGUAAUUAGUUA | 0.0197 ± 0.0059
10 | UCCUCCAUGAGCUUGCAUAGUAUUUAGUAA | 0.0262 ± 0.0057
11 | UCCUGGUACAGAUUGCAUAGUAUUUAGUUA | 0.0178 ± 0.0046
12 | UCCUGGUACAGCUUGCAUAGUAUUUAGAUUA | 0.0165 ± 0.0061
13 | UCCUGGAUCAGCUUGCAUAGUAAUUAGAUA | 0.0126 ± 0.0029
14 | UCCUGGAUGUCGAACCAUAGUAUUUAUUA | 0.000347 ± 0.017
15 | UCCUGGAACAGGAUGCAUAGUAUUUAGAAA | 0.001 ± 0.0043
16 | UCCUGGAUGUCCUUGCUUAGUAAUUAGUUA | 0.00118 ± 0.0043
17 | UCCUGGAACAGCUUGCAUAGUAUCUAGUUA | 0.0563 ± 0.011
18 | UCCUGGAUGUCGAACCAUAUUAUUUAGUUA | 0.000437 ± 0.011
19 | UCCUGGAUGUCGAUGCAAAGUAUUUUGUUA | 0.000115 ± 0.025

Shown with each value named: entries from further up.
UCCUGGUACAGCUUGCAUAGUAUUUAGAUUA
  pre-steady-state target cleavage rate: 0.0165 ± 0.0061
UCCUGGAUCAGCUUGCAUAGUAAUUAGAUA
  pre-steady-state target cleavage rate: 0.0126 ± 0.0029
UCCUGGAUGUCGAACCAUAGUAUUUAUUA
  pre-steady-state target cleavage rate: 0.000347 ± 0.017

Remaining list, next part.

Row | Sequence | pre-steady-state target cleavage rate
20 | UCCUGGAUGUCGAAGCAUAGUAAAAUCAAA [g9:g16:cont:t1A] | 0.00034 ± 0.018
21 | UCCUGGAUGUCGUUGCAUAGUAUUUAGUAUA | 0.00302 ± 0.0033
22 | UCCUGGAUGUGCUUCCUUAGUAUUUAGUUA | 0.000862 ± 0.0078
23 | UCCUGGUACAGCUUGCAUAGGUAUUUAGUUA | 0.000438 ± 0.014
24 | UCCUGGAUCAGCUUGCAUUGUUUUUAGUUA | 0.00759 ± 0.0022
25 | UCCUGGAUGUCCUUGCAUACAUAAAUCAAA [g12:g19:cont:t1A] | 0.000678 ± 0.013
26 | UCCUGGAUGUGGAUGCAUAGUAUUUAGUUA | 0.00243 ± 0.0043
27 | UCCUGGAUCAGCUUGCAUAGUAUUUAGUUA [g2:g22:cont:t1A] | 0.0516 ± 0.0097
28 | UCCUGGAUGUCGAAGCAAAGUUUUUAGUUA | 0.000688 ± 0.0078
29 | UCCUGCUACAGCUUGCUUAGUAUAUAGUUA | 0.0128 ± 0.0044
30 | UCCUGGAUGUGCUUCCAUAGUAUUUAGAUA | 0.00055 ± 0.014
31 | UCCUCCUACAGCUUGGUUAGUAUUUAGUAA | 0.00502 ± 0.0015
32 | UCCUGGAUGAGCUUGCUAGUAUUUAGUUA | 0.000752 ± 0.008
33 | UCCUGGAUGUGCUUGCAUAGAUUUUAGAAA | 0.00132 ± 0.0049
34 | UCCUGGAUGAGCUUGGUAAGUAUUUAGUUA | 0.00163 ± 0.0046
35 | UCCUGCUACAGCAUGCAUAGUAUUUAGUAA | 0.00614 ± 0.0024
36 | UCCUGGAUGAGCUUGCAUAGUUAAUACAAA | 0.000765 ± 0.0081
37 | UCCUGGAUGUGCUUGCAAUCUAUUUAGAAA | 0.000568 ± 0.011
38 | UCCUGGAUGUGCUUGCAUAGGUAUUUAGUUA | 0.00161 ± 0.0069
